# Percent effect of library compounds

By UniProt entry, the sequences of proteins in these tests, tags left out. Residues count along the entry.
UniProt P9WNZ1, whole entry: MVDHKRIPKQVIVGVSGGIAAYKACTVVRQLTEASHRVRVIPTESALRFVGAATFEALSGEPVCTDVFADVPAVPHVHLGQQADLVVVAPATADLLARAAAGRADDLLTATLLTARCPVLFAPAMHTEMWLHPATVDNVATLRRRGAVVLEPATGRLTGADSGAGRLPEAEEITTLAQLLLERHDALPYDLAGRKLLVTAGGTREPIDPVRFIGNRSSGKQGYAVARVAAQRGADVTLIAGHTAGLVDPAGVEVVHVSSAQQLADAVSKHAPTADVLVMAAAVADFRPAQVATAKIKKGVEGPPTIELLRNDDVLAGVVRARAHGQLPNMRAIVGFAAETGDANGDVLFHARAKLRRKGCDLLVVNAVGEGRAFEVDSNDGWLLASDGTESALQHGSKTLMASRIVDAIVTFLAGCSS
UniProt I6X8D2, whole entry: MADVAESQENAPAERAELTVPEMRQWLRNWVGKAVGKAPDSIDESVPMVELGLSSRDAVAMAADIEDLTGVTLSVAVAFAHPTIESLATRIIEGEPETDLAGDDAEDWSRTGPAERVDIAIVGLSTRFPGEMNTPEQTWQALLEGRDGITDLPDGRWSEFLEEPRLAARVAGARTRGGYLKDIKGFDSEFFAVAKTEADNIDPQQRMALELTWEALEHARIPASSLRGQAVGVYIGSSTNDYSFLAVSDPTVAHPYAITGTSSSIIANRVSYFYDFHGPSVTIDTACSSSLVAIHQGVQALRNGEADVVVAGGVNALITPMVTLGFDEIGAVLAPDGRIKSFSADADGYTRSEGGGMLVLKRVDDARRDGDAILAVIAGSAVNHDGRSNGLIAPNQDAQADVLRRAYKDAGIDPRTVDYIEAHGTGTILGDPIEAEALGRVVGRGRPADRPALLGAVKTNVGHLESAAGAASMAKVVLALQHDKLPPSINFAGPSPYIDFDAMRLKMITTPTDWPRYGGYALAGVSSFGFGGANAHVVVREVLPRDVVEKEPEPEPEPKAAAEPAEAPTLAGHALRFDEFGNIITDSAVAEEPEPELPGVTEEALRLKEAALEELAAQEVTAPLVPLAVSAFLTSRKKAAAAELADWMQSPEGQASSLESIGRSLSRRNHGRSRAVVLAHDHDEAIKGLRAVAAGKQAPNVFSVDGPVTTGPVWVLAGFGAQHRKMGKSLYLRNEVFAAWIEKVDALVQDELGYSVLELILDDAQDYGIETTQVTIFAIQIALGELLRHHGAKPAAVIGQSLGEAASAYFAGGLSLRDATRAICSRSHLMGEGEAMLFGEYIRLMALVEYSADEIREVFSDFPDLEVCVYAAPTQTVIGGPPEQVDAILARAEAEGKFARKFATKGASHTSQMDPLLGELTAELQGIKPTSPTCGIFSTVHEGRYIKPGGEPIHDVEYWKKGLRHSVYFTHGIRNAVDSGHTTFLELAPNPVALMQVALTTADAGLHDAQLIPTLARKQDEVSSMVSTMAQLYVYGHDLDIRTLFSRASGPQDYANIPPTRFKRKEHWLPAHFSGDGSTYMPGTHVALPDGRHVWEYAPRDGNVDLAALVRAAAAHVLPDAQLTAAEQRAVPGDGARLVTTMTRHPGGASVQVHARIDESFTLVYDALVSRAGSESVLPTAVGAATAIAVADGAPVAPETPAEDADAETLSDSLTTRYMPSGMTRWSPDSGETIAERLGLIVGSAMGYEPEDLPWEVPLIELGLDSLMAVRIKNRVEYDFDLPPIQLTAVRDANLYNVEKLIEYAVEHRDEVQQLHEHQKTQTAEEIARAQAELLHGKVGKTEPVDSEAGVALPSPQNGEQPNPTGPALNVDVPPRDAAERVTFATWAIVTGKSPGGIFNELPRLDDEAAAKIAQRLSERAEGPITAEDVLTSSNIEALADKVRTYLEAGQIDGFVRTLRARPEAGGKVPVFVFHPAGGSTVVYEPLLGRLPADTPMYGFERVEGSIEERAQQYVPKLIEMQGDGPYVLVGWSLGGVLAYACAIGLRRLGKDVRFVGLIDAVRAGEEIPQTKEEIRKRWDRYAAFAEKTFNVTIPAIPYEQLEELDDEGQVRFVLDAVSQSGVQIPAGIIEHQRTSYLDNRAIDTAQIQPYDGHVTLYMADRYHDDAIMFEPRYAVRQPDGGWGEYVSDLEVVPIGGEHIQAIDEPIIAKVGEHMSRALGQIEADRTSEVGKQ
UniProt P9WPC5, whole entry: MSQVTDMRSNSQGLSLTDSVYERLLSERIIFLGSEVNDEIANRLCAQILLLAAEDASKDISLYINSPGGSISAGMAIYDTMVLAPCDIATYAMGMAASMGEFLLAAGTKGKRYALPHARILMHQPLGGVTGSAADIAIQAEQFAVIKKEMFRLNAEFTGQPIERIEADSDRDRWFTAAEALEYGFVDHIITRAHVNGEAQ
UniProt P9WPC3, whole entry partner: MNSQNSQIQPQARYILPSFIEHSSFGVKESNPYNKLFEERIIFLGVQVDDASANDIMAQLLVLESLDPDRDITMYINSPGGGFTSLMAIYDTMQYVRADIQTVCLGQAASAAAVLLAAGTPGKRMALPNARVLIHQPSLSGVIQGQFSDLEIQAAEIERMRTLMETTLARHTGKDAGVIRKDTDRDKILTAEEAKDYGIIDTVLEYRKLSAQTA
UniProt A4I591, 1-473: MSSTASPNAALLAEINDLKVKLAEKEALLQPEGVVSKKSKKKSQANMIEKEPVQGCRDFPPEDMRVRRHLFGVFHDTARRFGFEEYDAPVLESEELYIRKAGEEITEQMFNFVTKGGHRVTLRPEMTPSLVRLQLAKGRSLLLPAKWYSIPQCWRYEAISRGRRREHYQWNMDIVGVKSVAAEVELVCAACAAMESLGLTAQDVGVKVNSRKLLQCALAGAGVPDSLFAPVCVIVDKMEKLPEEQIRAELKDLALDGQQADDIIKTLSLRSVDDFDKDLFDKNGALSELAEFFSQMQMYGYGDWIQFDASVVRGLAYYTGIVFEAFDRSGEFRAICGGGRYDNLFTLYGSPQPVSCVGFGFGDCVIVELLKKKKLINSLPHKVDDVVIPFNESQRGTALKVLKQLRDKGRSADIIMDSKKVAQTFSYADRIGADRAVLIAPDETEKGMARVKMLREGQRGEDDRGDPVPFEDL
UniProt P9WFT3, whole entry: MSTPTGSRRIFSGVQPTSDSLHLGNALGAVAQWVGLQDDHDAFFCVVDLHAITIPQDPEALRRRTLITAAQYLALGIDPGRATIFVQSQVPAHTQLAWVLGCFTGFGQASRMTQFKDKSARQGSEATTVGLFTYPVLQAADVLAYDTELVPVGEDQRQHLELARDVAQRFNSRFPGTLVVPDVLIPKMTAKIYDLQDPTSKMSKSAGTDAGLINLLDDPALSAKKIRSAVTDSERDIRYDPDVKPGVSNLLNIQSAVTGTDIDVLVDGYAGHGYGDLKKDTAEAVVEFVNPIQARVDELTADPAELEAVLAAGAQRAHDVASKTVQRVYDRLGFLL

Data taken from ChEMBL document CHEMBL3988442, “University of Dundee, Small-Polar-MMV Screening Library” (2021).

The filed quantity is “Percent Effect” (%). How 0% and 100% were set is not recorded. Most values in the screen are low, and negative values occur. This is an unselected part of the compounds tested. A dash means the value is not listed here; it may have been measured.

CoaBC: 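Coenzyme A biosynthesis protein CoaBC, Mycobacterium tuberculosis (UniProt P9WNZ1). Enzyme assay of CoaBC with a phosphate dye (Biomol Green) read at 650 nm. Compounds at 30 µM. Higher reads as stronger inhibition, judged from the few compounds that gave an IC50. Most strong results did not repeat in a second test. About 67,000 compounds were tested under these conditions; 0.06% (about 40) showed 50% or more at least once.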
Pks13 thioesterase: 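Polyketide synthase Pks13, Mycobacterium tuberculosis (UniProt I6X8D2). Enzyme assay of the thioesterase domain of polyketide synthase 13; the read-out is not stated. Tested at 30 µM. Higher reads as stronger inhibition (inferred from which compounds were picked for retests). About 67,000 compounds were tested under these conditions; 0.46% (about 300) showed 50% or more at least once.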
ClpP1P2: 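Protease assay of ClpP1P2, read by the AMC dye that it sets free. Target: ClpP1P2, Mycobacterium tuberculosis (UniProt P9WPC5 and UniProt P9WPC3). Tested at 50 µM. Direction is inferred from only a few compounds that gave an IC50; most scored high, so higher reads as stronger inhibition. Most other retested compounds had strongly negative values. Size under these conditions: about 69,000 compounds, about 10 of them at 50% or above in at least one test.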
Toxoplasma: 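Assay of Toxoplasma gondii numbers, read through their beta-galactosidase reporter with a colour substrate. Tested at 10 µM. Higher reads as fewer parasites (inferred from which compounds were picked for retests). Size under these conditions: about 67,000 compounds, about 260 of them at 50% or above in at least one test.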
LiHisRS: 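Enzyme assay of histidyl-tRNA synthetase; the read-out is not stated. Target: Histidine-tRNA ligase, Leishmania infantum (UniProt A4I591). Concentration: 30 µM. Higher reads as stronger inhibition (inferred: compounds with an IC50 in retests scored well above the rest). The assay is labelled LdHisRS but filed under L. infantum. About 69,000 compounds were tested under these conditions; 0.6% (about 410) showed 50% or more at least once.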
MtTrpRS: 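Tryptophan-tRNA ligase, Mycobacterium tuberculosis (UniProt P9WFT3). Enzyme assay of tryptophanyl-tRNA synthetase; the read-out is not stated. Concentration: 10 µM. Direction is not recorded; retested compounds ran higher, which suggests that high means inhibition. Of about 65,000 compounds tested this way, about 64 (0.098%) reached 50% or more in at least one test.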

With O=C([C@H]1C[C@@H]2CN(c3ncc(F)cn3)C[C@H]1O2)N1CCOCC1 the screen gave CoaBC: 3.837%; ClpP1P2: -3.946%; LiHisRS: 5.941%.
With CC(C)(C)OC(=O)NCC1CCCCN1Cc1ccccn1 (centres unmarked) the screen gave CoaBC: 7.725%; Pks13 thioesterase: -13.17%; ClpP1P2: -2.07%; Toxoplasma: -3.768%; LiHisRS: 14.75%; MtTrpRS: -0.6157%.
With Cc1ccc(OCC(O)CN(C)CC(=O)NC(C)C)c(C)c1 (centres unmarked) the screen gave CoaBC: -2.066%; Pks13 thioesterase: 14.59%; ClpP1P2: 6.447%; Toxoplasma: -6.64%; LiHisRS: -9.333%; MtTrpRS: 4.686%.
With CC(O)CCN(C)C(=O)Nc1cccc(F)c1 (centres unmarked) the screen gave CoaBC: 19.33%; Pks13 thioesterase: -19.18%; ClpP1P2: -8.912%; Toxoplasma: 11.62%; LiHisRS: 12.5%; MtTrpRS: 0.2859%.
With Clc1ccc(C2(CNC3=NCCN3)CCCCC2)cc1.I the screen gave Toxoplasma: -2.747%.
With CC(C)c1nnc(CN2CCCC2Cn2cncn2)o1 (centres unmarked) the screen gave CoaBC: 5.783%; Pks13 thioesterase: -7.882%; ClpP1P2: 15.49%; Toxoplasma: -0.3176%; LiHisRS: 24.66%; MtTrpRS: 1.199%.
With CCC(O)CN1CCN(C(=O)Cc2ccc(OC)cc2OC)CC1 (centres unmarked) the screen gave CoaBC: -8.579%; Pks13 thioesterase: -11.81%; ClpP1P2: -10.03%; Toxoplasma: 24.07%; LiHisRS: 8.547%; MtTrpRS: -0.05679%.
With Cc1nc(CN2C(=O)C[C@@H]3[C@@H]2CCN3S(C)(=O)=O)cs1 the screen gave CoaBC: 1.454%; Pks13 thioesterase: -2.619%; ClpP1P2: 26.98%; LiHisRS: 20.21%; MtTrpRS: 1.59%.
With C=C(C)COc1ccc(C(=O)NCCn2c(C)cc(C)nc2=O)cc1 the screen gave CoaBC: -4.869%; Pks13 thioesterase: -0.5902%; ClpP1P2: -8.591%; Toxoplasma: -7.466%; LiHisRS: 13.22%; MtTrpRS: 1.564%.
With Cn1nccc1-c1nnn2c1COCC(CNCC1CC1)C2 (centres unmarked) the screen gave CoaBC: 0%; ClpP1P2: -4.448%; LiHisRS: 10%.
With C=C(C)COc1ccccc1CN1CCC(C(=O)NCC)C1 (centres unmarked) the screen gave CoaBC: 2.963%; Pks13 thioesterase: -14.48%; ClpP1P2: -20.24%; Toxoplasma: 1.23%; LiHisRS: 4.196%; MtTrpRS: -2.349%.
With CCn1cc2c(n1)CN(Cc1ccoc1)CC2COCC1CC1 (centres unmarked) the screen gave CoaBC: -5.176%; Pks13 thioesterase: -8.175%; ClpP1P2: -1.025%; LiHisRS: 17.31%; MtTrpRS: 1.501%.
With Cc1cccc(CN2CCc3ncnc(N4CCN(C)CC4)c3CC2)n1 the screen gave CoaBC: 0.1616%; Pks13 thioesterase: -4.591%; ClpP1P2: 7.706%; LiHisRS: 20.21%; MtTrpRS: 5.006%.

Once more, the final 2:

| SMILES | CoaBC | Pks13 thioesterase | ClpP1P2 | Toxoplasma | LiHisRS | MtTrpRS |
|---|---|---|---|---|---|---|
| `CCn1cc2c(n1)CN(Cc1ccoc1)CC2COCC1CC1` (centres unmarked) | -5.176% | -8.175% | -1.025% | - | 17.31% | 1.501% |
| `Cc1cccc(CN2CCc3ncnc(N4CCN(C)CC4)c3CC2)n1` | 0.1616% | -4.591% | 7.706% | - | 20.21% | 5.006% |